# Test results as given in PubChem BioAssay AID2685 (National Center for Advancing Translational Sciences (NCATS), 2010).
# This is one part of the list. Further columns of the screen follow, without active or inactive calls. Compounds called inactive in the main read-out are mostly missing here. Potencies come from curve fits of mixed quality, noted in brackets.
# Assay: qHTS Assay for Lipid Storage Modulators in Drosophila S3 Cells;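 for cell number change: cells counted by Cell Tracker Red CMTPX staining in the red channel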
# Details: BODIPY lipid droplet fluorescence, 18-24 h; for cell number change: measured here: cell count max response, cells fed with added oleic acid
# Procedure, shortened: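 Drosophila S3 cells loaded with oleic acid (400 uM, as added) and compounds at several concentrations; lipid droplets imaged by 488-nm laser-scanning cytometry, 500–530 nm intensity and object ratio to cell channel. Percent activity normalized to 20 uM Triacsin C.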
# [1] = measured here: cell number channel AC50, cells fed with added oleic acid
# [2] = measured here: lipid fluorescence (Fed channel) AC50, cells fed with added oleic acid
Structure (SMILES),cell number change,AC50 [1],AC50 [2]
O=C(NCCN1CCOCC1)c1cc(-c2ccc(Cl)c(Cl)c2)on1,22.2%,"0.82 µM [rising, full curve, poor fit]","29.1 µM [rising, single point]"
CCN1CCN(c2nc(Nc3ccc(C)c(C)c3)nc(N)c2[N+](=O)[O-])CC1,33.8%,"1.64 µM [rising, partial curve]","0.231 µM [rising, full curve, poor fit]"
CC(C)c1nc(C(N)=O)c2[nH]c(=O)n(-c3ccc(F)cc3)c2n1,-21%,–,–
COc1ccc(C(=O)Nc2ccc(NC(=O)c3ccccn3)cn2)cc1,-0.806%,–,–
Nc1ccc(-c2nc3c(Cl)c(N)ccc3[nH]2)cc1,157%,–,–
Cc1cccc(N2CCN(S(=O)(=O)c3cc(-c4cc(C)no4)ccc3C)CC2C)c1 (configuration not stated),36.9%,"0.231 µM [rising, full curve, poor fit]","29.1 µM [rising, single point]"
O=C(NCc1nc(-c2ccc(Cl)cc2)no1)c1ccc2c(c1)OCO2,-2.5%,–,"20.6 µM [rising, partial curve, poor fit]"
CCCn1c(CNC(=O)c2cccs2)nc2ccccc21,-14.2%,"0.164 µM [falling, full curve, poor fit]",–
O=S(=O)(/C=C/c1ccccc1)N1CCN(Cc2ccc3c(c2)OCO3)CC1,6.83%,–,–
CSc1ccc(/C=N/NC(=O)c2ccc(-n3cnnn3)cc2)cc1,-4.15%,–,"25.9 µM [rising, single point]"
O=C(CN(Cc1ccc(F)cc1)C(=O)CCC(=O)Nc1nccs1)NCc1ccccc1,10.3%,–,–
CC(CCc1ccccc1)NC(=O)Cc1ccc(Br)cc1 (configuration not stated),-6.76%,–,"0.82 µM [rising, full curve]"
COc1cc(OC)c(S(=O)(=O)N2CCCCC2)cc1S(=O)(=O)N1CCCCC1,-3.91%,–,–
CCOC(=O)c1ccc(NC(=O)c2ccccc2[N+](=O)[O-])cc1,7.68%,–,"6.51 µM [rising, single point]"
COc1cccc(OC)c1C(=O)N1CCN(c2c(Cc3ccccc3)c(C)nc3ncnn23)CC1,1.65%,–,"29.1 µM [rising, single point]"
CN(C)CCC(=O)c1cccc(Br)c1,16.8%,"0.058 µM [rising, full curve, poor fit]","0.92 µM [rising, full curve, poor fit]"
Cc1noc(C)c1C(=O)Nc1nnc(-c2ccccc2)s1,7.6%,–,"32.6 µM [rising, single point]"
Cc1ccc(S(=O)(=O)N(C)c2c(C)ccc(S(=O)(=O)N3CCN(C)CC3)c2C)cc1,4.49%,–,"0.00461 µM [rising, full curve, poor fit]"
COc1ccc(S(=O)(=O)N2CCN(Cc3ccccc3)CC2)cc1OC,12.1%,–,"29.1 µM [rising, single point]"
CCOCC(=O)OCC(=O)NC12CC3CC(CC(C3)C1)C2,-20.8%,–,"0.0326 µM [falling, full curve]"
NS(=O)(=O)c1ccc(-c2ccc(/C=N/NC(=O)c3ccccc3O)o2)cc1,-2.99%,–,–

Structure (SMILES),cell number change,AC50 [1],AC50 [2]
COc1ccccc1-c1ccc(Nc2cccc(C(F)(F)F)c2)nn1,42.8%,"10.3 µM [rising, partial curve, poor fit]",–
O=C(c1cc(-c2ccc(O)cc2)on1)N1CCCC1,19.1%,–,"6.51 µM [rising, single point]"
CC(C)CC(=O)N1CCN(Cc2ccc3c(c2)OCO3)CC1,20%,–,"0.0058 µM [falling, full curve, poor fit]"
CCOc1ccccc1C(=O)NC1CCN(Cc2ccccc2)CC1,12.3%,–,"23.1 µM [rising, single point]"
Cc1cc(NC(=O)CSc2nnc(Cc3ccccc3)o2)no1,15.2%,–,"7.31 µM [rising, partial curve]"
CCCOc1ccccc1C1CC(=O)NC(C)=C1C(=O)OCC(C)C (configuration not stated),-24.9%,–,"23.1 µM [falling, partial curve]"
O=C(O)Cn1cc(C(=O)C(F)(F)F)c2ccccc21,-13.6%,–,"0.13 µM [falling, full curve, poor fit]"
Cc1noc(/C=C/N(C)C)c1S(=O)(=O)NC1CCCCC1,-20.2%,–,"0.00517 µM [falling, full curve, poor fit]"
CCC(C)NC(=O)c1c(N)n(/N=C/c2cccs2)c2nc3ccccc3nc12 (configuration not stated),-10.3%,–,–
CC(C)(C)OC(=O)N1CCC(c2c(C(=O)O)cnn2-c2ccc(Cl)cc2)CC1,24.1%,"2.06 µM [rising, full curve, poor fit]",–
Cc1cc(C(=O)COC(=O)c2ccc(CO)cc2)c(C)n1CC1COc2ccccc2O1 (configuration not stated),1%,–,"0.00461 µM [rising, full curve, poor fit]"
CN(C)/N=C1\CCS(=O)(=O)c2sccc21,-23%,–,"29.1 µM [falling, single point]"
COc1ccc(S(=O)(=O)N2CCC(C(=O)N3CCc4ccccc4C3)CC2)cc1C,-3.62%,"0.00461 µM [falling, full curve, poor fit]",–
O=C1c2ccccc2C(=O)N1OS(=O)(=O)c1ccccc1,-32.8%,"8.2 µM [falling, partial curve]","25.9 µM [falling, partial curve]"
Cc1cccc(N2C(=O)C3CC3C2=O)c1 (configuration not stated),29.5%,–,"10.3 µM [rising, partial curve]"
COc1ccc(C(=O)NCCc2cn3ccccc3n2)cc1,12.9%,"1.64 µM [rising, partial curve]","4.61 µM [rising, partial curve]"
Cc1c(NC(=O)c2cc3ccccc3c(=O)s2)c(=O)n(-c2ccccc2)n1C,-13.1%,–,"9.2 µM [rising, single point]"
O=C(Cc1ccc2c(c1)OCCO2)Nc1cc(Cl)ccc1N1CCOCC1,–,"2.06 µM [rising, partial curve]",–
Cc1ccc(S(=O)(=O)N(C)CC(=O)NCCCn2ccnc2)cc1,20.8%,–,–
O=C(OCc1c(-c2ccccc2)ncc2ccccc12)c1cccc(Br)c1,-35.4%,"29.1 µM [falling, single point]",–
CCOC(=O)N1CCN(C(=O)CSc2nnc(-c3cc(OC)cc(OC)c3)o2)CC1,58.4%,"4.11 µM [rising, full curve, poor fit]","6.51 µM [rising, partial curve]"

# Part of the list above, tab-delimited.
Structure (SMILES)	cell number change	AC50 [1]	AC50 [2]
CC(CCc1ccccc1)NC(=O)Cc1ccc(Br)cc1 (configuration not stated)	-6.76%	–	0.82 µM [rising, full curve]
CC(C)CC(=O)N1CCN(Cc2ccc3c(c2)OCO3)CC1	20%	–	0.0058 µM [falling, full curve, poor fit]
CCCOc1ccccc1C1CC(=O)NC(C)=C1C(=O)OCC(C)C (configuration not stated)	-24.9%	–	23.1 µM [falling, partial curve]
COc1ccc(S(=O)(=O)N2CCC(C(=O)N3CCc4ccccc4C3)CC2)cc1C	-3.62%	0.00461 µM [falling, full curve, poor fit]	–

# Going on with the list.

Structure (SMILES),cell number change,AC50 [1],AC50 [2]
CC(C)(C)c1cnnn1-c1ccc(/C=N/Nc2ccc([N+](=O)[O-])cc2)cc1,-12.2%,–,"29.1 µM [falling, single point]"
CC1CCCN(S(=O)(=O)c2cccc(-c3cn4cccnc4n3)c2)C1 (configuration not stated),-9.48%,–,"0.326 µM [falling, full curve, poor fit]"
O=C(Nc1ccc2nn(-c3ccccc3)nc2c1)c1cccs1,-54.3%,"29.1 µM [falling, single point]",–
Cc1ccc(C(=O)NCCCNC(=O)c2ccc(Cl)cc2)cn1,20%,–,"6.51 µM [rising, single point]"
COc1ccccc1OCCCC(=O)Nc1ccc([N+](=O)[O-])cc1Br,19%,–,"0.355 µM [rising, full curve, poor fit]"
CC(C)(C)NCC(O)COc1ccccc1C(C)(C)C (configuration not stated),2.38%,–,–
C=CCN(C(=O)c1csnn1)C(C(=O)NCc1ccccc1)c1c(F)cccc1Cl (configuration not stated),-52.4%,"11.6 µM [falling, partial curve, poor fit]",–
Nc1nnc(SCC(=O)N2CCCCC2)s1,-4.86%,–,"0.116 µM [falling, full curve, poor fit]"
Cn1cc(CN2CCC(Oc3ccc(C(=O)N4CCCCC4)cc3)CC2)cn1,-15.3%,"0.0731 µM [rising, full curve, poor fit]",–
O=C(CSCc1cc(=O)n2nc(C3CC3)sc2n1)Nc1ccccc1Cl,-4.25%,–,"0.82 µM [rising, single point]"
COc1ccc(OC)c(NC(=O)c2ccc(OCC(=O)N3CCOCC3)c(OC)c2)c1,21.5%,"2.59 µM [rising, full curve, poor fit]",–
C[C@@]12C(=O)N(c3cccc(Br)c3)C(=O)N1[C@H](c1ccc(Cl)cc1)[C@@H]1C(=O)N(C3CCCCC3)C(=O)[C@@H]12,88.7%,"23.1 µM [rising, partial curve, poor fit]",–
COc1ccc([C@@H]2[C@@H]3C(=O)N(C(C)(C)C)C(=O)[C@@H]3[C@]3(C)C(=O)N(c4ccc(C)cc4)C(=O)N23)cc1,12.6%,–,"10.3 µM [falling, single point]"
CCc1ccc(C(=O)COC(=O)CNC(=O)c2ccco2)cc1,2.17%,–,"29.1 µM [rising, single point]"
COc1ccccc1C(=O)Nc1ccc(C)c(S(=O)(=O)N2CCCCC2)c1,79.8%,"16.4 µM [rising, partial curve]",–
CNS(=O)(=O)c1cccc(C(=O)OCC(=O)N2CC(C)OC(C)C2)c1 (configuration not stated),36.5%,"14.6 µM [rising, partial curve, poor fit]",–
CCC(=O)N1CCN(c2ccc(Cl)cc2NC(=O)c2ccc([N+](=O)[O-])o2)CC1,–,–,"5.17 µM [falling, full curve]"
FC(F)(F)c1nnc2ccc(-n3ccnc3)nn12,-3.31%,–,"20.6 µM [falling, single point]"
COc1cc(/C=c2\sc3n(c2=O)CCCN=3)ccc1O,-21.7%,–,"29.1 µM [falling, single point]"
